These are yes or no findings as the source states them, for the method shown. A result given as binding can be weak or reduced; the word gives no strength.
Molecular target: vesicle transport V-SNARE protein (Vti1a) of the white-backed planthopper (white-backed planthopper (Sogatella furcifera))
Assay: two-hybrid; split-ubiquitin Y2H system (Dualsystems Biotech), yeast NMY51; growth on QDO (SD-Ade-His-Leu-Trp) with 20 mM 3-aminotriazole, 30 °C, and β-galactosidase assay

With “vesicle-associated membrane protein 7 (VAMP7) of the white-backed planthopper (from UniProt A0A7S6G4N4)” the binding was “binds”.

Reference: PMC8435234
